{"source": "paper PMC12935370", "binders": {"B1": {"name": "Synpo (synaptopodin), endogenous in mouse glomeruli (protein, UniProt Q8CC35 1-929)", "chain": "MLGAHFPPPPLGASEGRAAPCTFQIPDGSYRCLALEAEESSSEDGLQGEVRLVDLEEEGTSQSRANHGTPPLSRAPAIIQPSSCHREARGGFQRSDRPSHDWDVVQARKVMTASGSSSPVPRVAQKPALGRSTSFTENDLKEAKARSQQIAAQLTTPPSSNSRGVQLFNRRRQRVNEFTLESRGQRSPKLNQEALQTGRPLSPIGHAPGPSVKPTSPSKPGSPKHPSPQSPSRGVAGHIMEGYSEEASLLRHLEKVASEEEEVPLVVYLKENAALLTANGLHLSQSRETQQSSPNPPDTEVPSPAADINQNPSSPNATLTTLASSSHHSQPTADINQNPPAAITPVPQNSSQAQCSPNGTLDSKPGTLCADDGQSPVPAEEVRSSILLIDKVSAPPSAASTFSREATPLSSSGPPAADLMSSSLLIDMQPSTLVAPAEQEVPGHVAVTTPTKVYSEVHLTLAKPASVVNRTARPFGIQSPGTSQIEQSPMMGRRQFGEKAWAPPASSMADRSPQPQRHIMSRSPMVERRLLGQRSPVLERRPLGNFTPPPTYAETLSTAPVASRVRSPPSYSTLYPSSDPKPSHLKGQVAPANKTGILEESMARRGSRKSMFTFVEKPKVTPNPDLLDLVQTADEKRRQRDHGEVGMEEEPFALGAEASNFQQEPIARDRASPAAAEEAVPEWASCLKSPRIQAKPKPKPNQNLSEASGKGAELYARRQSRMEKYVIESSGHAELARCPSPTMSLPSSWKYTTNAPGGFRVASLSPARTPPASLYHGYLPENGVLRPEPTKQQPYQMRPSLYALSPVKEPAKASSRATSSRTPSRTVSPRAASPAKPSSLDLVPNLPRAGLPPSPALPRPSRSSPGLYTAPVQDSLQPTAVSPTYSSDISPVSPSRAWSPRAKQAPRPSFSTRNAGIEAQVWKPSFCFK"}}, "molecular_target": "GST-tagged MAGI-2", "assay": "pull-down; GST-tagged MAGI-2 with glomerular lysates from mouse kidneys; only the target purified", "note": "No constants are given. Whether binding was seen depends on the method and setting. Binding seen in cells or lysates may run through a third protein. Binding can be weak; no strength is given.", "data": [{"binder": "B1", "values": [{"measurement": "binding", "result": "binds"}]}]}
